Measured values as given in patent US20260207708A1, “THERAPEUTIC USES OF ADIPOSE-SECRETED SIGNALING PROTEIN (ADISSP)” (UNIVERSITY OF MASSACHUSETTS, priority 2023, published 2026).
For at least one compound, name, drawing or mass did not settle the structure.

System: Akt
Test: Akt activation in serum-starved brown adipocytes
Format: cell-based
Details: adipocytes pre-treated with inhibitor 2 hr: S961 0.5 μM, Melittin 1 μM, Gallein 5 μM, wortmannin 1 μM, LDC1267 1 μM; then ADISSP 300 nM 30 min
Procedure: In some cases adipocytes were pre-treated with inhibitors for 2 hr: S961 (0.5 μM), Melittin (1 μM), Gallein (5 μM), wortmannin (1 μM), and LDC1267 (1 μM).

Question: Which “blocking of Akt activation by ADISSP” value does the source give for `COC[C@H]1OC(=O)c2coc3c2[C@@]1(C)C1=C(C3=O)[C@@H]2CCC(=O)[C@@]2(C)C[C@H]1OC(C)=O` [wortmannin] here?
Answer: Its value is “blocked”.
